{"source": "patent US20220409620A1", "about": "“REDUCING IMMUNOGENICITY TO PEGLOTICASE” (Horizon Pharma Rheumatology LLC, priority 2016, published 2022)", "test_system": "adult patients with uncontrolled gout", "assay": "Serum uric acid (sUA) levels and sUA responder rate, open-label study of pegloticase with MTX (MIRROR OL)", "format": "in vivo, human", "description": "The primary objective is to estimate the response rate during Month 6 (Weeks 20, 22, and 24), as measured by the sustained normalization of serum uric acid (SUA) to <6 mg/dL for at least 80% of the time during Month 6 in subjects receiving KXX with MTX.\nThe primary efficacy outcome endpoint is the sustained normalization of SUA to <6 mg/dL for at least 80% of the time during month 6 (weeks 20, 22, and 24) in subjects receiving KXX with MTX. […] Participants who achieve this endpoint were classified as “responders.” Serum uric acid (SUA) responders may also be defined as participants achieving and maintaining SUA <6 mg/dL for at least 80% of the time during Month 6 (Weeks 20, 22, and 24).\nBlood samples may be collected prior to each pegloticase infusion for measurement of SUA levels using the Beckman Coulter AU System Uric Acid procedure. Participants were declared “non-responders” if there were SUA measures >6 mg/dL at 2 consecutive study visits beginning with the week 2 visit. […] This assumption and subsequent discontinuation of pegloticase was consistent with the protocol of large phase III randomized controlled trials and the product label. A formal stopping rule was 2 occasions of SUA levels of greater than 6 mg/dL.\nClinical Chemistry—Blood samples were collected prior to each pegloticase infusion for measurement of SUA levels (primary efficacy parameter) using the Beckman Coulter AU System Uric Acid procedure. In this procedure uric acid is converted to hydrogen peroxide. Hydrogen peroxide reacts with reagent to produce a chromophore which is read bichromatically at 660/800 nm. The amount of dye formed is proportional to the uric acid concentration in the sample.\nSerum samples for measurement of SUA levels were collected at the Screening Visit, the Week −4 Visit (prior to the first dose of MTX), and the Week −2 Visit during the MTX Run-in Period; within 48 hours prior to each pegloticase infusion and after the end of each pegloticase infusion prior to discharge from the site during the Pegloticase+IMM Period; at the non-infusion Week 52/End of Study/Early Termination Visits and at the Post Treatment 3 and 6 Month Follow-up Visits. Additional serum samples for SUA levels were collected at optional non-infusion (Frequent Sampling) Visits at Weeks 1 and 7. […] Subjects with SUA level >6 mg/dL at 2 consecutive visits beginning at Week 2 visit discontinued treatment, completed the End of Pegloticase Infusion Visit procedures within 2 weeks and continued the subject visits according to the protocol (without treatment).\nEfficacy analyses were performed using the modified intention-to-treat (mITT) population, defined as all enrolled subjects who received ≥1 dose of pegloticase. The proportion of Month 6 responders was summarized, along with a 95% confidence interval for the proportion. The proportion of Month 3 and overall (Months 3 and 6 combined) responders was analyzed similarly.\nA subject was declared a non-responder if the subject had SUA level >6 mg/dL at 2 consecutive study visits beginning with the Week 2 Visit. In addition, a subject who withdraws from study treatment for any reason after the first dose of pegloticase in the KXX+MTX Period and prior to Month 6 (for the primary endpoint) or Month 3 (for the secondary endpoint) was considered a non-responder if SUA values were not collected at the planned time points.\nPatients were administered oral MTX (15 mg/week) and folate (1 mg/day) 4 weeks prior to the first pegloticase infusion (Day 1) and throughout the pegloticase treatment period. Blood was drawn prior to each infusion to measure sUA level, monitor clinical parameters, and examine for ADA development. All patients followed typical IR prophylaxis protocols (fexofenadine one day before and the morning of each infusion and acetaminophen and IV corticosteroid the morning of each infusion).", "key": {"[1]": {"conditions": "Month 6 sUA Non-Responders, Week 4-Post-Infusion, n=2"}, "[2]": {"conditions": "Month 6 sUA Non-Responders, Week 6-Post-Infusion, n=1"}, "[3]": {"conditions": "Month 6 sUA Non-Responders, Week 6-Pre-Infusion, n=2"}, "[4]": {"conditions": "Month 6 sUA Responders, Week 4-Post-Infusion, n=11"}, "[5]": {"conditions": "Month 6 sUA Responders, Week 6-Post-Infusion, n=11"}, "[6]": {"conditions": "Month 6 sUA Responders, Week 6-Pre-Infusion, n=11"}, "[7]": {"conditions": "Month 6 sUA Responders, Week 7, n=4"}}, "note": "This continues a long series; more values of the same kind are listed elsewhere.", "data": [{"substance": "pegloticase", "values": [{"measurement": "Serum Uric Acid, Change from Baseline, Mean (SD)", "setting": "[1]", "result": "−8.60 (0.707) mg/dL"}, {"measurement": "Serum Uric Acid, Change from Baseline, Median", "setting": "[1]", "result": -8.60, "unit": "mg/dL"}, {"measurement": "Serum Uric Acid, Observed, Mean (SD)", "setting": "[1]", "result": "0.30 (0.000) mg/dL"}, {"measurement": "Serum Uric Acid, Observed, Median", "setting": "[1]", "result": 0.30, "unit": "mg/dL"}, {"measurement": "sUA <6 mg/dL, n (%)", "setting": "[1]", "result": "2 (100%)"}, {"measurement": "sUA <6 mg/dL, n (%)", "setting": "Month 6 sUA Non-Responders, Week 4-Pre-Infusion, n=3", "result": "1 ( 33.3%)"}, {"measurement": "Serum Uric Acid, Change from Baseline, Mean (SD)", "setting": "[2]", "result": "−9.10 (NE) mg/dL"}, {"measurement": "Serum Uric Acid, Change from Baseline, Median", "setting": "[2]", "result": -9.10, "unit": "mg/dL"}, {"measurement": "Serum Uric Acid, Observed, Mean (SD)", "setting": "[2]", "result": "0.30 (NE) mg/dL"}, {"measurement": "Serum Uric Acid, Observed, Median", "setting": "[2]", "result": 0.30, "unit": "mg/dL"}, {"measurement": "sUA <6 mg/dL, n (%)", "setting": "[2]", "result": "1 (100%)"}, {"measurement": "Serum Uric Acid, Change from Baseline, Mean (SD)", "setting": "[3]", "result": "−4.65 (6.293) mg/dL"}, {"measurement": "Serum Uric Acid, Change from Baseline, Median", "setting": "[3]", "result": -4.65, "unit": "mg/dL"}, {"measurement": "Serum Uric Acid, Observed, Mean (SD)", "setting": "[3]", "result": "4.25 (5.586) mg/dL"}, {"measurement": "Serum Uric Acid, Observed, Median", "setting": "[3]", "result": 4.25, "unit": "mg/dL"}, {"measurement": "sUA <6 mg/dL, n (%)", "setting": "[3]", "result": "1 ( 50.0%)"}, {"measurement": "Serum Uric Acid, Change from Baseline, Median", "setting": "[4]", "result": -8.80, "unit": "mg/dL"}, {"measurement": "Serum Uric Acid, Observed, Median", "setting": "[4]", "result": 0.30, "unit": "mg/dL"}, {"measurement": "sUA <6 mg/dL, n (%)", "setting": "[4]", "result": "11 (100%)"}, {"measurement": "Serum Uric Acid, Change from Baseline, Mean (SD)", "setting": "[5]", "result": "−8.97 (2.810) mg/dL"}, {"measurement": "Serum Uric Acid, Change from Baseline, Median", "setting": "[5]", "result": -8.80, "unit": "mg/dL"}, {"measurement": "Serum Uric Acid, Observed, Mean (SD)", "setting": "[5]", "result": "0.30 (0.000) mg/dL"}, {"measurement": "Serum Uric Acid, Observed, Median", "setting": "[5]", "result": 0.30, "unit": "mg/dL"}, {"measurement": "sUA <6 mg/dL, n (%)", "setting": "[5]", "result": "11 (100%)"}, {"measurement": "Serum Uric Acid, Change from Baseline, Mean (SD)", "setting": "[6]", "result": "−8.97 (2.810) mg/dL"}, {"measurement": "Serum Uric Acid, Change from Baseline, Median", "setting": "[6]", "result": -8.80, "unit": "mg/dL"}, {"measurement": "Serum Uric Acid, Observed, Mean (SD)", "setting": "[6]", "result": "0.30 (0.000) mg/dL"}, {"measurement": "Serum Uric Acid, Observed, Median", "setting": "[6]", "result": 0.30, "unit": "mg/dL"}, {"measurement": "sUA <6 mg/dL, n (%)", "setting": "[6]", "result": "11 (100%)"}, {"measurement": "Serum Uric Acid, Change from Baseline, Mean (SD)", "setting": "[7]", "result": "−8.90 (4.755) mg/dL"}, {"measurement": "Serum Uric Acid, Change from Baseline, Median", "setting": "[7]", "result": -7.85, "unit": "mg/dL"}, {"measurement": "Serum Uric Acid, Observed, Mean (SD)", "setting": "[7]", "result": "0.30 (0.000) mg/dL"}, {"measurement": "Serum Uric Acid, Observed, Median", "setting": "[7]", "result": 0.30, "unit": "mg/dL"}]}]}
